Out of some 360,000 compounds screened, about 7,500 (2.1%) were called active. Inconclusive results, whose numbers are uncertain, are shown with a selection of clear calls. Calls come from the whole dose curve; as a rule, active = well fitted inhibition curve with a large enough effect; inconclusive = small, poorly fitted or top-dose-only effect, or effect the other way; inactive = flat fitted curve, though single readings scatter. Where the call is inconclusive, the potency comes from a doubtful curve fit.
assay: Nrf2 qHTS screen for inhibitors; details: A549 ARE-Fluc reporter, luciferase luminescence, 18-24 h; activity change, negative = inhibition: at 46 µM (top of the series); note: nearly all actives have a fitted effect of over 60% in size
Summary of the method: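 Nrf2 function is reported as luminescence of an ARE-controlled luciferase in A549 cells. Compounds were tested at several concentrations, and a CellTiter-Fluor read on the same wells flagged cytotoxicity.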
% is set by controls: 0 for no effect and ±100 for the full control effect; potency is the fitted concentration of half-maximal effect.

SMILES	Potency	activity change, negative = inhibition
CCCc1c(NC(=O)Nc2ccc(Cl)cc2Cl)cnn1-c1ccccc1	inconclusive: 3.66 µM [activator, full curve]	–
COc1ccc(CN2CCN(C(=O)c3ccc(S(=O)(=O)NCc4ccco4)cc3)CC2)cc1	inconclusive: 23.1 µM [falling, single point]	–
Nc1nnc(Cc2ccc(F)cc2)s1	inconclusive: 14.6 µM [falling, partial curve, poor fit]	–
CCn1c(=O)c(C(=O)Nc2ncccc2C)c(O)c2ccccc21	inconclusive: 29.1 µM [falling, single point]	–
CN(CC(=O)Nc1cccc(F)c1)C(=O)c1ccc(N2CCCCCC2)c([N+](=O)[O-])c1	inconclusive: 18.4 µM [falling, single point]	–
Cc1ccc(C)c(NS(=O)(=O)c2cc3c(cc2Cl)NC(=O)CO3)c1	active: 23.1 µM	–
Cc1ccc2c(c1)C(c1ccc(F)cc1)N(C(=O)c1ccccc1Br)CC(=O)N2 (centres undefined)	inconclusive: 29.1 µM [falling, single point]	–
COc1cccc(CNC(=O)Cn2ccc3cc(S(=O)(=O)N4CCCCCC4)ccc32)c1	inconclusive: 23.1 µM [falling, partial curve]	–
CN1CCN(C(=O)CCN2C(=O)/C(=C\c3ccccc3F)SC2=S)CC1	inconclusive: 3.26 µM [activator, full curve, poor fit]	–
O=C(c1ccccc1F)N1CCN(c2cnn(-c3cccc(Cl)c3)c(=O)c2Cl)CC1	inconclusive: 10.3 µM [falling, partial curve]	–
Cc1ccc(S(=O)(=O)N2CCN(C(=O)CN3C(=O)NC(C)(CCC(C)C)C3=O)CC2)c(C)c1 (centres undefined)	inconclusive: 23.1 µM [falling, single point]	–
O=C(CCSc1nnnn1-c1ccccc1)N1CCOCC1	inconclusive: 14.6 µM [activator, partial curve]	–
Cc1ccc(Cl)cc1N1CCN(C(=O)Cc2ccc(-n3c(=O)[nH]c4ccsc4c3=O)cc2)CC1	inconclusive: 18.4 µM [falling, partial curve]	–
O=C1NC(=S)SC1=Cc1ccccc1Br	inconclusive: 25.9 µM [falling, partial curve]	–
CCOc1ccc(C(C(=O)NC2CCCC2)N(C(=O)c2snc(C(N)=O)c2N)c2cccc(O)c2)cc1 (centres undefined)	–	inactive: 18.7%
Cc1ccc(C(=O)CSc2nc3ccccc3c(=O)n2N)o1	inconclusive: 0.82 µM [activator, partial curve, poor fit]	–
Cc1ccc(C(=O)Nc2ccc3nc(C)sc3c2)s1	inconclusive: 16.4 µM [activator, partial curve]	–
Cc1ccc(C)c(OCCn2cc(C(=O)O)c3ccccc32)c1	–	inactive: -12.4%
COc1ccc(-c2ccc3nnc(SCC(=O)NCC4CCCO4)n3n2)cc1 (centres undefined)	–	inactive: 7.04%
Clc1ccc(OCc2cc(-c3ccccc3)no2)c(Cl)c1	inconclusive: 2.06 µM [activator, partial curve]	–
O=C(c1ccco1)N1CCN(C(=O)c2cn(-c3ccccc3)nc2-c2ccc(F)cc2)CC1	inconclusive: 2.31 µM [activator, full curve, poor fit]	–
CCN(CC)CCCNC(=O)c1cc(-c2ccc3c(c2)OCO3)on1	inconclusive: 10.3 µM [activator, partial curve, poor fit]	–

Record cards, as listed above:
`Cc1ccc(C(=O)CSc2nc3ccccc3c(=O)n2N)o1` reads Potency: inconclusive: 0.82 µM [activator, partial curve, poor fit]
`Nc1nnc(Cc2ccc(F)cc2)s1` reads Potency: inconclusive: 14.6 µM [falling, partial curve, poor fit]

Next part:

SMILES	Potency	activity change, negative = inhibition
Cc1cc(C(=O)COC(=O)c2ccc[nH]c2=O)c(C)n1C1CC1	inconclusive: 2.91 µM [activator, full curve]	–
CN(C)S(=O)(=O)c1cccc(C(=O)OCC(=O)Nc2sccc2C#N)c1	inconclusive: 14.1 µM [activator, single point]	–
CCCn1c(NCc2ccccc2C)nc2ccccc21	inconclusive: 29.1 µM [activator, single point]	–
CCc1ccc(S(=O)(=O)c2nnn3c2nc(N2CCCC2)c2sccc23)cc1	inconclusive: 29.1 µM [activator, single point]	–
COc1ccc([C@H]2CC(=O)C=C(c3ccc(OC(F)(F)F)cc3)C2)cc1OC	inconclusive: 29.1 µM [falling, single point]	–
COc1ccc(/C=N/OC(=O)Nc2ccccc2OC)cc1	inconclusive: 9.2 µM [activator, partial curve]	–
O=C(NCCCn1ccnc1)c1ccc2nccnc2c1	inconclusive: 0.651 µM [falling, single point]	–
c1csc(CSc2nc3ccccc3s2)c1	inconclusive: 10.3 µM [activator, partial curve]	–
COc1ccc(/C=C/c2noc(-c3ccccc3O)n2)cc1	inconclusive: 23.1 µM [activator, single point]	–
COc1ccc2c(c1)c(C)cc[n+]2Cc1ccccc1	active: 6.51 µM	–
CC(=O)N1CCN(c2ccc(Oc3ccc([N+](=O)[O-])c(C(F)(F)F)c3)cc2)CC1	active: 8.2 µM	–
CCOC(=O)C(C)Sc1nc2c(c(=O)[nH]c(=O)n2C)n1CCc1ccccc1 (centres undefined)	inconclusive: 3.66 µM [activator, partial curve, poor fit]	–
COc1ccc(S(=O)(=O)N(CCCN2CCCC2=O)Cc2cc3cc(C)c(C)cc3[nH]c2=O)cc1	inconclusive: 4.11 µM [activator, partial curve, poor fit]	–
CN1CCN(S(=O)(=O)c2cccc(C(=O)N(C)CC(=O)Nc3ccc(Cl)c(Cl)c3)c2)CC1	inconclusive: 18.4 µM [falling, single point]	–
O=C(Nc1cccc(S(=O)(=O)NC2=NCCC2)c1)c1ccc(F)cc1	inconclusive: 23.1 µM [falling, single point]	–
CCOC(=O)C1(S(=O)(=O)c2ccccc2)CCN(Cc2ccc(Cl)cc2)CC1	–	inactive: -9.02%
CCCCNC(=O)CCCCCNS(=O)(=O)c1ccc(OC)cc1	inconclusive: 16.4 µM [falling, partial curve, poor fit]	–
Cc1cc(C(=O)NCCc2ccccc2)ccc1[N+](=O)[O-]	inconclusive: 1.46 µM [activator, full curve]	–
COc1ccc(CC(=O)Nc2nc(C)cs2)cc1OC	inconclusive: 25.9 µM [falling, single point]	–
CCCSC1=C(C#N)C(c2ccccc2OCC)CC(=O)N1 (centres undefined)	inconclusive: 16.4 µM [falling, partial curve, poor fit]	–
Cc1ccc(-c2ccc(/C=N/O)o2)cc1[N+](=O)[O-]	inconclusive: 29.1 µM [falling, partial curve, poor fit]	–
CCc1nnc(N/N=C/c2cc(Br)c(O)cc2O)n1N	–	inactive: 7.27%

SMILES	Potency	activity change, negative = inhibition
O=C(c1ccc2c(c1)N(Cc1ccccc1)C(=O)c1ccccc1S2(=O)=O)N1CCN(c2ccccn2)CC1	inconclusive: 23.1 µM [falling, partial curve, poor fit]	–
CC1=NN(c2ccccc2)C(=O)C1C(=O)c1ccccc1 (centres undefined)	inconclusive: 23.1 µM [falling, partial curve, poor fit]	–
CCC(=O)N1c2ccc(S(=O)(=O)NCCc3ccc(OC)c(OC)c3)cc2CC1C (centres undefined)	inconclusive: 25.9 µM [falling, partial curve, poor fit]	–
CCOc1cc(C(=O)Nc2ccc3c4c(cccc24)C(=O)N3CC)cc(OCC)c1OCC	inconclusive: 14.6 µM [falling, partial curve, poor fit]	–
CCOc1ccccc1NC(=O)CN1C(=O)C2(SCC(=O)N2c2cccc(F)c2)c2ccccc21 (centres undefined)	inconclusive: 4.11 µM [activator, single point]	–
Cc1c(Cl)cccc1NC(=O)CCn1nc(C)c2c(C)n(-c3ccccc3)nc2c1=O	–	inactive: 17.8%
Cc1cccc(C)c1-n1cccc1/C=C1\SC(=S)N(c2cccc(C(=O)O)c2)C1=O	–	inactive: 1.31%
Cn1c(CNc2nc3ccccc3n2C)nc2ccccc21	inconclusive: 29.1 µM [activator, single point]	–
Cc1ccc(CSc2nc3ccccc3cc2C=O)cc1	inconclusive: 0.731 µM [activator, full curve, poor fit]	–
CCCCCN(C(=O)CCC(=O)OCC(=O)NCc1cccc(OC)c1)c1c(N)n(CCCC)c(=O)[nH]c1=O	inconclusive: 23.1 µM [activator, partial curve, poor fit]	–
CCOC(=O)C1(Cc2cccc(F)c2)CCN(C(=O)C2CCCO2)CC1 (centres undefined)	–	inactive: -8.23%
COc1ccc(N2CCN(S(=O)(=O)c3ccc4c(c3)CCCC4)CC2)c([N+](=O)[O-])c1	inconclusive: 14.6 µM [falling, partial curve]	–
COCCCn1nnnc1SCC(=O)N1CCN(C(=O)c2ccco2)CC1	inconclusive: 29.1 µM [falling, single point]	–
COc1cccc(-c2cc(C(=O)Nc3ccc(C)cc3)[nH]n2)c1	inconclusive: 10.3 µM [activator, partial curve]	–
Cc1ccc(OCCC(=O)OCC(=O)NC(=O)NC2CCCC2)cc1	–	inactive: 2.39%
O=C(c1ccc(=O)[nH]n1)N1CCc2ccccc2C1	inconclusive: 5.8 µM [activator, partial curve, poor fit]	–
Cc1cc(C)n(-c2nc3ccccc3nc2Nc2cc(C(=O)O)ccc2C)n1	–	inactive: 9.08%
Cc1ccc(NCCC(=O)c2cccs2)cc1C	inconclusive: 18.4 µM [activator, partial curve]	–
FC(F)Sc1ccc(NC(=S)NC2CCCC2)cc1	inconclusive: 2.06 µM [activator, partial curve, poor fit]	–
O=C(NNC(=O)c1ccccc1Cl)c1ccco1	inconclusive: 23.1 µM [activator, partial curve, poor fit]	–
